Data as given in patent publication US20190076507A1, “Artificial Red Blood Cell Having Ability to Inhibit Conversion of Hemoglobin into Methemoglobin” (Public University Corporation Nara Medical University, priority 2016, published 2019).

Assay: Reactivity of NADH with NOC7 (absorbance at 340 nm), no Hb
Details: mixed with NOC7 in PBS, 25° C., 10 minutes

Structure (SMILES): NC(=O)C1=CN([C@@H]2O[C@H](COP(=O)(O)OP(=O)(O)OC[C@H]3O[C@@H](n4cnc5c(N)ncnc54)[C@H](O)[C@@H]3O)[C@@H](O)[C@H]2O)C=CC1 [NADH, nicotinamide adenine dinucleotide (NADH)]
- change of absorbance at 340 nm: decreased
